{"source": "patent US20110104157A1", "about": "“LIVER CANCER DRUG” (Chugai Seiyaku Kabushiki Kaisha, priority 2008, published 2011)", "origin": "cited, not measured here", "system": "advanced hepatocarcinoma", "conditions": "cited from earlier work", "note": "At least one structure is not confirmed: it was looked up by name or label, or the drawing left a doubt.", "data": [{"compound": "CCN(CC)CCNC(=O)c1c(C)[nH]c(/C=C2\\C(=O)Nc3ccc(F)cc32)c1C", "note": "[Sunitinib]", "values": [{"measurement": "median overall survival", "setting": "34 patients with advanced hepatocarcinoma", "result": 9.8, "unit": "months"}, {"measurement": "median progression-free survival", "setting": "34 patients, 95% confidence interval 2.6-6.9", "result": 3.9, "unit": "months"}, {"measurement": "progression-free survival at six months", "setting": "34 patients", "result": 32, "unit": "%"}, {"measurement": "progression-free survival at three months", "setting": "34 patients", "result": 56, "unit": "%"}, {"measurement": "patients with partial response", "setting": "of 34 patients, after 12 weeks of treatment", "result": 1, "unit": "patient"}, {"measurement": "patients who achieved stable condition", "setting": "of 34 patients", "result": 17, "unit": "patients"}]}]}
